≈ marks a conversion by molar mass, not a printed value.
Test system: Ishikawa
Assay: Inhibition of estradiol-induced proliferation in human Ishikawa cells after 72 hrs by Cell-titer-Glo assay
Type: functional, cell-based

In the case of CC/C(=C(\c1ccccc1)c1ccc(OCCN(C)C)cc1)c1ccccc1 [TAMOXIFEN], the IC50 is reported as 7.87 µg/mL (≈ 21.2 µM).

Reference: ChEMBL document CHEMBL4177560, “Functional evaluation of synthetic flavonoids and chalcones for potential antiviral and anticancer properties” (Bioorg Med Chem Lett, 2017)
